Data from the M2OR odorant receptor database.
This is a selection; strong and weak results do not stand in their true shares. Calls are pooled over several reports, among them a noisy single-well screen. The list shows a part of the results.

What was measured:
Conditions in all cases: stereoisomer not certain
[1] = test system: T1, OR6B1
T1 sequence (whole entry): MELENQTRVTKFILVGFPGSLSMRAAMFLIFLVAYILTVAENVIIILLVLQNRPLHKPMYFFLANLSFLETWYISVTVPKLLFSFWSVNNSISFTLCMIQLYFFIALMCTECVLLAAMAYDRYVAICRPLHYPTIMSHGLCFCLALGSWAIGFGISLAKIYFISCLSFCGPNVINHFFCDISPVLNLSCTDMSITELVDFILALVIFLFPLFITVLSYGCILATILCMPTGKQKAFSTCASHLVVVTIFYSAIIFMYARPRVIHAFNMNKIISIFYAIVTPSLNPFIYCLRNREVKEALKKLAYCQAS
Summary of the method: (§1)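 Assay methods differ from source to source, frequently being transient luciferase assays in mammalian cell lines. For each receptor–molecule pair, the label responsive (active) applies when the original authors judged the measured signal statistically different from baseline, and non-responsive (inactive) applies otherwise.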

[2] = test system: T2, OR6B2
T2 sequence (whole entry): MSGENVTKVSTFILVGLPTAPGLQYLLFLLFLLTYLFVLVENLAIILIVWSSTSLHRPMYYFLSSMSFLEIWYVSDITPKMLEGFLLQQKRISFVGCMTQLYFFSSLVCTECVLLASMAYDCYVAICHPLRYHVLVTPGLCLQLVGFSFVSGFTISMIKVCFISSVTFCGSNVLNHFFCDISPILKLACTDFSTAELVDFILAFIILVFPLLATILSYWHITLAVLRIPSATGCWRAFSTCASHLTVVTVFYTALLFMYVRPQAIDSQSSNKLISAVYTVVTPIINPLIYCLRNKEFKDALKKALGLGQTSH
Summary of the method: as §1

[3] = test system: T3, OR6B3
T3 sequence (whole entry): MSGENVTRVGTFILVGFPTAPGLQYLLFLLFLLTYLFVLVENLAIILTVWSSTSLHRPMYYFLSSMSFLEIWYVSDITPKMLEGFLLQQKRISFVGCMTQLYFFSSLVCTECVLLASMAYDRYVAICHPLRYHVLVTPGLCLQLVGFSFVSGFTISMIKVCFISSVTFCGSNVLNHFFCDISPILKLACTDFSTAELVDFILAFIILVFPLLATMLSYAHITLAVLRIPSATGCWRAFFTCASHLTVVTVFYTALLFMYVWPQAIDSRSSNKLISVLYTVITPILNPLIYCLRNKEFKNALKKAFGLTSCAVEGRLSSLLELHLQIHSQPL
Summary of the method: as §1

[4] = test system: T4, OR6C1
T4 sequence (whole entry): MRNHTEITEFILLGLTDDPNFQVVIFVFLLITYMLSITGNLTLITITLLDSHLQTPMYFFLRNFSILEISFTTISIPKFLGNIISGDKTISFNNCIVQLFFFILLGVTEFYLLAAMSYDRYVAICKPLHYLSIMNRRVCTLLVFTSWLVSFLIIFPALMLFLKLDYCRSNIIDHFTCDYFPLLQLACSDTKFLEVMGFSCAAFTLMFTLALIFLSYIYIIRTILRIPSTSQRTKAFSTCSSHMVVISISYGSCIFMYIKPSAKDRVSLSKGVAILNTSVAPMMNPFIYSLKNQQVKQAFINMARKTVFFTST
Summary of the method: as §1

[5] = molecular target: T5, OR6C2 (Homo sapiens) (UniProt Q9NZP2)
T5 sequence (whole entry): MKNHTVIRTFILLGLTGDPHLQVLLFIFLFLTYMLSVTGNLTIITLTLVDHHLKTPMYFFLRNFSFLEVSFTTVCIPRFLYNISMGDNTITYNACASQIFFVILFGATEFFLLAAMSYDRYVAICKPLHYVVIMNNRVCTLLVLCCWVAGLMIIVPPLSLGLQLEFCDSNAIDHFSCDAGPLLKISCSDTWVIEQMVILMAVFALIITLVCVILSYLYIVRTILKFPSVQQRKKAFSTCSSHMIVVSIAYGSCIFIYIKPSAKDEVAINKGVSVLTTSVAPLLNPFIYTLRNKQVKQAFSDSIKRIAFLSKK
Summary of the method: as §1

[6] = molecular target: T6, OR6C3 (Homo sapiens) (UniProt Q9NZP0)
T6 sequence (whole entry): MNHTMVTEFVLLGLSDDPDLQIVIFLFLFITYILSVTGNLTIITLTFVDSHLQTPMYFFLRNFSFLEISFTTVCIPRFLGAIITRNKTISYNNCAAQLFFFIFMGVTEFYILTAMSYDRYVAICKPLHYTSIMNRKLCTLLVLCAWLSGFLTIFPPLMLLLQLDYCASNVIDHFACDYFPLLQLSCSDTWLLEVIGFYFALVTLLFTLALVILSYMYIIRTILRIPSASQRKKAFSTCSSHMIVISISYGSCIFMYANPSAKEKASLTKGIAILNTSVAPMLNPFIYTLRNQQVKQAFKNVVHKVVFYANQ
Summary of the method: as §1

[7] = test system: T7, OR6C4
T7 sequence (whole entry): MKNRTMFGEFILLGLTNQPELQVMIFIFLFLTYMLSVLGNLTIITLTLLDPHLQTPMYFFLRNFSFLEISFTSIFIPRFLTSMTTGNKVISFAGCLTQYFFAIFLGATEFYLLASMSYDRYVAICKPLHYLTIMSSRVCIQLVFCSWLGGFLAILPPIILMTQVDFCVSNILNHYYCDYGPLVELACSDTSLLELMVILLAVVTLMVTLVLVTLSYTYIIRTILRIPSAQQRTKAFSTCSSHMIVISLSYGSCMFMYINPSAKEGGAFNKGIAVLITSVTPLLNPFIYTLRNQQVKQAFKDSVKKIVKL
Summary of the method: as §1

[8] = molecular target: T8, OR6C6 (Homo sapiens) (UniProt A6NF89)
T8 sequence (whole entry): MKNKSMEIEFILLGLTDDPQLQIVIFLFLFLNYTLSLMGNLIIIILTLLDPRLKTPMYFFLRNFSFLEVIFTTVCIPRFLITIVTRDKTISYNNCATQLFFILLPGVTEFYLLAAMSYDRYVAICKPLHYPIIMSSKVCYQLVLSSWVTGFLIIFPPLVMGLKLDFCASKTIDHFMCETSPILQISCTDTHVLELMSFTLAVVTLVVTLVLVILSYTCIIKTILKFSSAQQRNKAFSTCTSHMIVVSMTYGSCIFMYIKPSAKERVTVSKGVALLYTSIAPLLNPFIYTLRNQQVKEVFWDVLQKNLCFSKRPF
Summary of the method: as §1

[9] = molecular target: T9, OR6C65 (Homo sapiens) (UniProt A6NJZ3)
T9 sequence (whole entry): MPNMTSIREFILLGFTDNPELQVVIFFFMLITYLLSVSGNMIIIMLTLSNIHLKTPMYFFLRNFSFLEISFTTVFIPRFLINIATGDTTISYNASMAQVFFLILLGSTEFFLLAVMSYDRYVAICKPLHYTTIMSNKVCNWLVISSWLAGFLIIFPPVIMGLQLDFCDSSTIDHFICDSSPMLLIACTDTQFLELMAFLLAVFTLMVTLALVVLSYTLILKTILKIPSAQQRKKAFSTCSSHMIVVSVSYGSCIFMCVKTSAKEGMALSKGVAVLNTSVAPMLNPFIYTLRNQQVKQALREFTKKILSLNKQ
Summary of the method: as §1

[10] = molecular target: T10, OR6C74 (Homo sapiens) (UniProt A6NCV1)
T10 sequence (whole entry): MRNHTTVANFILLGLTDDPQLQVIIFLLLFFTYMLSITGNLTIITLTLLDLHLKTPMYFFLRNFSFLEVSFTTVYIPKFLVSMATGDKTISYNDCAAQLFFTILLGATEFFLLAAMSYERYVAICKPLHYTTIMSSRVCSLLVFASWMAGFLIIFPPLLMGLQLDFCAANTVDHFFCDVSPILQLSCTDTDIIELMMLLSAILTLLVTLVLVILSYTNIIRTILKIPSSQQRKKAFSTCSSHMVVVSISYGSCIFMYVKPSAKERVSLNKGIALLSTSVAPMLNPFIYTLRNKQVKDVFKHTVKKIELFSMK
Summary of the method: as §1

[11] = molecular target: T11, OR6C75 (Homo sapiens) (UniProt A6NL08)
T11 sequence (whole entry): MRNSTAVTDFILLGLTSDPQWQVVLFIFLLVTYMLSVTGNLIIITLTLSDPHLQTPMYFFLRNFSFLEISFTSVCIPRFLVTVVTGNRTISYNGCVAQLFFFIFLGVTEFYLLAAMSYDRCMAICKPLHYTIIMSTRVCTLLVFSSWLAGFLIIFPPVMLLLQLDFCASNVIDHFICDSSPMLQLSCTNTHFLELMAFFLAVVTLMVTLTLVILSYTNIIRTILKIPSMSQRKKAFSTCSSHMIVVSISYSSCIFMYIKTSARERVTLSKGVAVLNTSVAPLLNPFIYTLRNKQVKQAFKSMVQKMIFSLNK
Summary of the method: as §1

[12] = molecular target: T12, OR6C76 (Homo sapiens) (UniProt A6NM76)
T12 sequence (whole entry): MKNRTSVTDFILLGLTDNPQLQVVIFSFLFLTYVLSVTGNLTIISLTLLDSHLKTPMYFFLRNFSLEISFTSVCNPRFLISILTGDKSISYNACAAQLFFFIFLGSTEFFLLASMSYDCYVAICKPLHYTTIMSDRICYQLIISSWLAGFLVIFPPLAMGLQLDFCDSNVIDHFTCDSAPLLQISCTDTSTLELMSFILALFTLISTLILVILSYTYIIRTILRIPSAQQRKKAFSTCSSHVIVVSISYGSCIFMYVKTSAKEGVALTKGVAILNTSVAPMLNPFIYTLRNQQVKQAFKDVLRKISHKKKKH
Summary of the method: as §1

[13] = molecular target: T13, OR6F1 (Homo sapiens) (UniProt Q8NGZ6)
T13 sequence (whole entry): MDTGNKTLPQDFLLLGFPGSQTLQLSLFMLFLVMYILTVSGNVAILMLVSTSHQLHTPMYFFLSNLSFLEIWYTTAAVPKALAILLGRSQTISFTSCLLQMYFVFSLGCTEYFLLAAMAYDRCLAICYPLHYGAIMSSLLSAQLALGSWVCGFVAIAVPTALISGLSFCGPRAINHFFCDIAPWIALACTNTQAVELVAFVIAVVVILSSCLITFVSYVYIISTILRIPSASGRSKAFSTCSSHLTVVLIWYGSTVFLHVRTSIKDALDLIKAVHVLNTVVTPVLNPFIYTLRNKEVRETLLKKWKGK
Summary of the method: as §1

Measured: odorant receptor agonist call

CCCCCCCOC(C)=O
inactive: all assays above

COC(=O)c1ccccc1O
inactive: all assays above

CC12C=CCC1C1CCC3=CC(=O)CCC3(C)C1CC2 (stereo unspecified)
inactive: all assays above

CC(=O)C(C)=O
inactive: all assays above

c1ccc(Oc2ccccc2)cc1
inactive: all assays above

COc1ccccc1O
inactive: all assays above

Two records drawn at random from those above, as already listed:
c1ccc(Oc2ccccc2)cc1
inactive: all assays above

CC12C=CCC1C1CCC3=CC(=O)CCC3(C)C1CC2 (stereo unspecified)
inactive: all assays above

Next part

CCCCCOC(C)=O
active: [13]
inactive: all other assays above

CCCCCCCCCC=O
inactive: all assays above

CC1=CCC(C(C)(C)O)CC1 (stereo unspecified)
inactive: all assays above

O=C1CCCCC1
inactive: all assays above

CC(=O)c1ccccc1
inactive: all assays above

O=CCc1ccccc1
inactive: all assays above
